According to PubChem BioAssay AID504444 (National Center for Advancing Translational Sciences (NCATS), 2011):
Several values for one entry are separate records, joined by “and”; a condition that tells them apart may be missing. Equal entries are not always repeated. Among all 360,000 compounds or so, about 7,500 (2.1%) were called active. Inconclusive results, whose numbers are uncertain, are shown with a selection of clear calls. Calls come from the whole dose curve; as a rule, active = well fitted inhibition curve with a large enough effect; inconclusive = small, poorly fitted or top-dose-only effect, or effect the other way; inactive = flat fitted curve, though single readings scatter. A potency beside an inconclusive call is a rough fit, not a confirmed value.

test: Nrf2 qHTS screen for inhibitors; conditions: A549 ARE-Fluc reporter, luciferase luminescence, 18-24 h; activity change, negative = inhibition: at 46 µM (top of the series); note: nearly all actives have a fitted effect of over 60% in size
Procedure, shortened: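 In this cell-based qHTS, ARE-driven firefly luciferase in A549 cells reports Nrf2 activity; the luminescent signal after BugLite lysis is the measured value, with a prior CellTiter-Fluor read for cell health.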
% is set by controls: 0 for no effect and ±100 for the full control effect; potency is the fitted concentration of half-maximal effect.

**Q.** For `O=C(CSc1nnc(Nc2ccccc2F)s1)Nc1cccc(S(=O)(=O)N2CCCCC2)c1`, which Potency is on record?
**A.** inconclusive: 18.4 µM [falling, single point]

**Q.** Which Potency does the source give for `COc1ccc(-c2ccc(=O)n(CC(=O)NCc3ccco3)n2)cc1` here?
**A.** inactive

**Q.** For `COC(=O)c1cc(C(=O)Nc2ccc(S(=O)(=O)NC(C)(C)C)cc2)cc([N+](=O)[O-])c1`, which Potency is on record?
**A.** inconclusive: 32.6 µM [falling, partial curve, poor fit]

**Q.** Which Potency does the source give for `O=C(C1CCC(CNS(=O)(=O)c2cccs2)CC1)N1CCN(c2ccc(F)cc2)CC1` (configuration not stated) here?
**A.** inconclusive: 29.1 µM [falling, single point]

**Q.** Which Potency does the source give for `CCOC(=O)c1cc(C#N)c(SCc2ccc(C#N)cc2)nc1C` here?
**A.** inconclusive: 29.1 µM [falling, partial curve, poor fit]

**Q.** With `CCOC(=O)c1c(NC(=O)c2cc(-c3ccc(OC)cc3)on2)sc(C)c1C` as the compound, how does the Potency read?
**A.** inactive

**Q.** With `COc1ccc(CCC(=O)Nc2sccc2C#N)cc1` as the compound, how does the Potency read?
**A.** inconclusive: 18.4 µM [activator, partial curve]

**Q.** For `Cc1cc(C(=O)OCC(=O)Nc2cccc(S(=O)(=O)N3CCOCC3)c2)c(C)o1`, which Potency is on record?
**A.** inconclusive: 11.6 µM [falling, partial curve, poor fit]

**Q.** For `Cc1ccc2nc(Cl)c(/C=N/NC(=O)c3ccccc3O)cc2c1`, which Potency is on record?
**A.** inconclusive: 9.2 µM [falling, partial curve, poor fit]

**Q.** With `COc1ccc(C2CC(c3ccc(Cl)cc3)=NN2c2ccc(S(N)(=O)=O)cc2)cc1` (configuration not stated) as the compound, how does the Potency read?
**A.** inconclusive: 16.4 µM [falling, single point]

**Q.** Which Potency does the source give for `O=C(NCCc1ccccc1)C(=O)Nc1cccc(Br)c1` here?
**A.** inconclusive: 2.59 µM [activator, partial curve, poor fit]

**Q.** For `COc1cc(/C=C2\NC(=S)N(C)C2=O)ccc1OCc1ccccc1F`, which Potency is on record?
**A.** inconclusive: 4.61 µM [falling, partial curve, poor fit]

**Q.** Which Potency does the source give for `O=C(CN1CCN(Cc2ccccc2)CC1)N/N=C/c1ccc(Br)s1` here?
**A.** inconclusive: 23.1 µM [falling, partial curve, poor fit]

**Q.** For `CCn1cnc2c1c(=O)n(CC(=O)NN)c(=O)n2Cc1ccccc1`, which Potency is on record?
**A.** inactive

**Q.** For `O=C(Nc1ccc(F)cc1)c1cc2ccccc2o1`, which Potency is on record?
**A.** inconclusive: 2.31 µM [activator, full curve]

**Q.** Which Potency does the source give for `CCCCC[n+]1ccn(C2=C([O-])c3ccccc3C(=O)/C2=N\S(=O)(=O)c2ccccc2)c1` here?
**A.** inconclusive: 29.1 µM [falling, single point]

**Q.** Which Potency does the source give for `COc1ccccc1NC(=O)Cn1cnc2c(cnn2-c2ccccc2)c1=O` here?
**A.** inconclusive: 16.4 µM [falling, single point]

**Q.** Which Potency does the source give for `COc1ccc(C(=O)NNC(=S)NC(=O)c2ccc(Cl)cc2)cc1` here?
**A.** inconclusive: 25.9 µM [falling, single point]

**Q.** For `COc1ccc(/C=C2\SC(=S)N(CCC(=O)Nc3cccc(O)c3)C2=O)cc1`, which Potency is on record?
**A.** inconclusive: 10.3 µM [falling, partial curve, poor fit]

**Q.** Which Potency does the source give for `CC(=O)c1cccc(CN2CCC(C(=O)Nc3cccc(-c4ccn[nH]4)c3)CC2)c1` here?
**A.** inconclusive: 29.1 µM [activator, partial curve, poor fit]

**Q.** With `CCn1nc(C)c2c(-c3ccccc3)cc(=O)n(C(C)C(=O)Nc3cccc(F)c3)c21` (configuration not stated) as the compound, how does the Potency read?
**A.** inconclusive: 29.1 µM [falling, single point]

**Q.** With `CN(C)CCCNC(=O)C[C@H]1C[C@H](C(=O)N2CCCCC2)[C@@]2(CCc3ccccc3)c3[nH]c4ccc(Cl)cc4c3CCN2C1=O` as the compound, how does the Potency read?
**A.** inconclusive: 18.4 µM [falling, single point]

**Q.** With `O=C1N/C(=N\N=C\c2ccc3ncccc3c2)SC1Cc1ccc(SC(F)F)cc1` (configuration not stated) as the compound, how does the Potency read?
**A.** inconclusive: 29.1 µM [falling, partial curve, poor fit]

**Q.** For `CCCCn1c(SCC(=O)N2CC(=O)Nc3ccccc32)nnc1-c1ccoc1C`, which Potency is on record?
**A.** inconclusive: 1.03 µM [activator, partial curve, poor fit]

**Q.** With `Nc1nc2ccc(C(=O)Nc3ccccc3)cc2s1` as the compound, how does the Potency read?
**A.** inconclusive: 1.16 µM [activator, partial curve]

**Q.** Which Potency does the source give for `O=C1/C(=C\c2cccc([N+](=O)[O-])c2O)SC(=S)N1Cc1ccccc1` here?
**A.** active: 16.4 µM

**Q.** Which Potency does the source give for `CN(c1ccccc1)S(=O)(=O)c1cccc(NC(=O)Cc2n[nH]c(=O)c3ccccc23)c1` here?
**A.** active: 16.4 µM

**Q.** Which Potency does the source give for `Cc1nn(-c2ccc(N3CCOCC3)nn2)c(C)c1CCC(=O)NCc1ccccc1` here?
**A.** inconclusive: 7.31 µM [activator, partial curve] and inconclusive: 14.6 µM [activator, partial curve, poor fit]

**Q.** For `O=C(N/N=C\c1ccco1)Nc1cccc(Cl)c1`, which Potency is on record?
**A.** inconclusive: 4.11 µM [activator, full curve, poor fit]

**Q.** With `O=C(Cc1c(O)c2ccccc2[nH]c1=O)NC1CCCCCC1` as the compound, how does the Potency read?
**A.** inactive

**Q.** Which Potency does the source give for `Cc1ccc(Cn2ccc(C3CC3)n2)cc1` here?
**A.** inconclusive: 11.6 µM [activator, partial curve]

**Q.** For `c1nnc(-c2ccc3c(c2)OCO3)o1`, which Potency is on record?
**A.** inconclusive: 29.1 µM [activator, partial curve, poor fit]

**Q.** For `CC1CCCCC1NC(=O)CCCN1C(=O)c2ccccc2C1=O` (configuration not stated), which Potency is on record?
**A.** inconclusive: 29.1 µM [activator, partial curve, poor fit]

**Q.** Which Potency does the source give for `CC(C)NC(=O)N(C)C[C@H]1Oc2c(NC(=O)Cc3ccccc3)cccc2C(=O)N([C@H](C)CO)C[C@@H]1C` here?
**A.** inactive

**Q.** Which Potency does the source give for `O=C(CSc1ncnc2c1cnn2-c1ccc(F)cc1)NCC1CCCO1` (configuration not stated) here?
**A.** inconclusive: 20.6 µM [falling, single point]

**Q.** With `CCC1CCCCN1S(=O)(=O)c1ccc(C(=O)N(CCCN(C)C)c2nc3cc4c(cc3s2)OCO4)cc1` (configuration not stated) as the compound, how does the Potency read?
**A.** inconclusive: 23.1 µM [falling, partial curve, poor fit]

**Q.** For `CCNC(=O)C1CC(=O)N(Cc2ccc3c(c2)OCO3)C(=Nc2ccc(F)cc2)S1` (configuration not stated), which Potency is on record?
**A.** inconclusive: 14.6 µM [falling, partial curve]

**Q.** With `COC1(OC)C(/C=C/c2ccc(C)cc2)C(C#N)(C#N)C1(OC)OC` (configuration not stated) as the compound, how does the Potency read?
**A.** inconclusive: 29.1 µM [falling, single point]

**Q.** With `Cc1cc(C)c(NS(=O)(=O)c2cccc3cccnc23)c(C)c1` as the compound, how does the Potency read?
**A.** inactive

**Q.** Which Potency does the source give for `Cc1ccn2c(Nc3ccccc3C)c(-c3ccc(N4CCOCC4)cc3)nc2c1` here?
**A.** inconclusive: 2.59 µM [activator, partial curve]

**Q.** For `Cc1cc(NC(=O)CC(C)(C)C)nc2c1c(=O)oc1ccccc12`, which Potency is on record?
**A.** inactive

**Q.** For `O=C(NNS(=O)(=O)c1ccc(F)cc1)c1ccccc1F`, which Potency is on record?
**A.** inconclusive: 7.31 µM [falling, partial curve, poor fit]

**Q.** For `Cc1ccc(C(=O)C2=C(O)C(=O)N(c3ncccn3)C2c2ccccc2F)o1` (configuration not stated), which Potency is on record?
**A.** inactive

**Q.** Which Potency does the source give for `CCCCc1cc(=O)oc2cc(OCC(=O)N(CC)CC)c(Cl)cc12` here?
**A.** inconclusive: 23.1 µM [falling, single point]

**Q.** Which Potency does the source give for `CCOC(=O)c1cccc(C2=CC(=O)C[C@H](c3ccc(OC)c(OC)c3)C2)c1` here?
**A.** inconclusive: 18.4 µM [falling, single point]

**Q.** For `Cc1cccc(NC(=S)/N=C(\N)Nc2nc(C)c3ccc(C)cc3n2)c1`, which Potency is on record?
**A.** active: 14.6 µM

**Q.** With `Cc1[nH]nc(-c2ccc(OCc3cnn(-c4ccccc4)c3)cc2O)c1Oc1ccc(Cl)cc1` as the compound, how does the Potency read?
**A.** inconclusive: 23.1 µM [falling, partial curve]

**Q.** Which Potency does the source give for `N/C(=N\OC(=O)COc1ccccc1)c1ccccn1` here?
**A.** inconclusive: 5.8 µM [activator, full curve]

**Q.** For `O=C1/C(=C/c2cccs2)SC(=S)N1C1CCS(=O)(=O)C1` (configuration not stated), which Potency is on record?
**A.** inconclusive: 23.1 µM [falling, single point]

**Q.** With `Cc1ccccc1CCNC(=O)c1ccc(NC(=O)N2CC(C)Sc3ccccc32)cc1` (configuration not stated) as the compound, how does the Potency read?
**A.** inconclusive: 20.6 µM [falling, partial curve]

**Q.** For `CCCN1CNc2c(c(=O)[nH]c(=S)n2CCc2cc(OC)cc(OC)c2)C1`, which Potency is on record?
**A.** inactive

**Q.** With `CC(=O)c1c(C)[nH]c(C(=O)OCC(=O)NCc2ccc3c(c2)OCO3)c1C` as the compound, how does the Potency read?
**A.** inconclusive: 23.1 µM [falling, single point]

**Q.** With `O=C(c1cc(COc2ccc3ncccc3c2)on1)N1CCCC(O)C1` (configuration not stated) as the compound, how does the Potency read?
**A.** inconclusive: 11.6 µM [falling, partial curve]

**Q.** For `CC(=O)Nc1cccc(NC(=O)CSc2ccc(-c3ccccn3)nn2)c1`, which Potency is on record?
**A.** inconclusive: 32.6 µM [falling, partial curve, poor fit]

**Q.** With `COc1ccc2c(c1)C(C)=CC(C)(C)N2S(=O)(=O)c1ccc(Br)cc1` as the compound, how does the Potency read?
**A.** inconclusive: 6.51 µM [activator, single point]

**Q.** Which Potency does the source give for `NC(=O)c1nc(-c2cccs2)nc2c1[nH]c(=O)n2-c1ccc(F)cc1` here?
**A.** inconclusive: 11.6 µM [falling, partial curve]

**Q.** With `CCCC(=O)N1CCc2cc(OC)c(OC)cc2C1COc1ccc2c(C)cc(=O)oc2c1` (configuration not stated) as the compound, how does the activity change, negative = inhibition read?
**A.** inactive: -1.24% [at 9.27 µM]

**Q.** Which Potency does the source give for `CC(C)(C)S(=O)(=O)c1ccc2nc3c(n2c1)CCCC3` here?
**A.** inactive

**Q.** Which Potency does the source give for `CCCCn1c(SCC(=O)c2ccc3c(c2)OCCO3)nnc1-c1ccoc1C` here?
**A.** inconclusive: 29.1 µM [falling, single point]

**Q.** Which Potency does the source give for `O=C(CN1CCN(c2ccccc2F)CC1)c1c[nH]c2ccc(F)cc12` here?
**A.** inconclusive: 32.6 µM [falling, single point]

**Q.** Which Potency does the source give for `Cc1cccc(C(C)C)c1NC(=O)C1CCN(S(=O)(=O)c2ccccc2)CC1` here?
**A.** inconclusive: 16.4 µM [falling, single point]

**Q.** Which Potency does the source give for `CCCSc1ncc(Cl)c(C(=O)Nc2ccc(S(=O)(=O)N3CCC(C)CC3)cc2)n1` here?
**A.** inconclusive: 11.6 µM [falling, single point]
